Residue numbers refer to the chain shown, from its start. No constants are given. Whether binding was seen depends on the method and setting.
B1: ch7-B4-C1-C9 (antibody, V domains shown)
VH: EVQLQQSGTELVKPGASVKLSCKASGYTFTNYWMHWVKQRPGQGLEWIGEINPSNGRTNYNEKFKTKATLTVDKSSSTAYMQLSSLTSEDSAVYYCARSTYYGYDWYFDVWGAGTTVTVSS
VL: DIVLTQSPSSMYASLGERVTITCKASQDINSYLSWFQQKPGKSPKTLIYRANRLLDGVPSRFSGGGSGQDYSLTISSLEHEDMGIYYCLQCDEFPHTFGGGTKLEIK
B2: ch4-E6-E4-B12 (antibody, V domains shown)
VH: EVQLKESGAELVKPGASVKLSCKASGYTFTSHWMHWVKQRPGQGLEWIGEINPSNGRTNYNEKFTSKATLTVDQSSSTAYMQLSSLTSEDSAVYYCARGNLTTVVPFDYWGQGTALTVSS
VL: DIVMTQSPSSLSASLGGKVTITCKASQDINKFIAWYQHKPGKGPRLLIHFTSTLQPGIPSRFSGSGSGRDYSFSISNLEPEDIATYFCLQYDLLLTFGGGTKLEIK
B3: ch2-H8-C9-F7-E2 (antibody, V domains shown)
VH: B2 VH with K5Q, E6Q, S31N, H32Y, T65K, Q74K, N100S, A115T
VL: DIQMTQTPSSLSASLGGKVTITCKASQDINNYIAWYQHKPGKGPRLLIHYTSTLQPGIPSRFSGSGSGRDYSFSISNLEPEDIATYFCLQYDILLTFGGGTKLEK
B4: 4-E6-E4-B12 (antibody, V domains shown)
VH: B2 VH
VL: B2 VL
B5: ch42-C8-A12-F3-D11 (antibody, V domains shown)
VH: EVHLVESGGDLVKPGGSLKLSCAASGFTFSSHGMSWVRQTPDKRLEWVATISSGGIYTYHPDSVKGRFSISRDNAKKTLYLQMSSLKSEDTGIYYCTRGQVGNWYFDVWGAGTTVTVSS
VL: DIVITQSPAIMSASPGEKVTINCSASSSVSYMHWFQQTPGTSPKLWIYSTSNLASGVPARFSGSGSGTFYSLTISRMEAEDAATYYCQQRSSYPLTFGAGTKLELK
B6: ch25-G9-G4-C12 (antibody, V domains shown)
VH: B5 VH with H3Q, S52N, I56Y, H60Y, S69T, K77N, G92A, I93M, T97A, V101L
VL: B5 VL with I4M, N22T, T38K, F69S
B7: ch27-G5-E9-B8 (antibody, V domains shown)
VH: EVQLVESGGGLVQPGGSRKLSCAASGFTFSSFGMHWVRQAPEKGLEWVAYISSGSSTIYYADTVKGRFTISRDNPKNTLFLQMTSLRSEDTAMYYCARSTGTGAMDYWGQGTSVTVSS
VL: DIQMTQTTSSLSASLGDSVTFSCRASQDISNYLNWYQQKPDGTVKLLISYTSRLHSGVPSRFSGSGSGTDYSLTISNLEQEDIATYFCQQGNALPWTFGGGTKLEIK
B8: ch10-H9-E3-G3 (antibody, V domains shown)
VH: B7 VH with L4R, T57A, I58M, T100D, T102K
VL: B7 VL with S18R, F21I, I48V, S49Y, A93T
B9: ch2-H1-D7-E5-D5 (antibody, V domains shown)
VH: B7 VH with Q3H, A40P, T57S, S99G
VL: B7 VL with S18R, F21I, A25T, S49Y, R53K, E79D, A93T
B10: 27-G5-E9-B8 (antibody, V domains shown)
VH: B7 VH
VL: B7 VL
B11: ch26-H9-B9-B7 (antibody, V domains shown)
VH: B7 VH with L4R, T100D, T102K
VL: B7 VL with Q3V, T7S, S18R, F21I, S49Y, A93T
B12: ch27-D11-C2-A10 (antibody, V domains shown)
VH: B7 VH with S31V, M34V, S56N, Y59H, N74I, T100S
VL: B7 VL with T7S, S18R, T20S, F21I, T43A, S49Y, E79D, A93T, I106L
B13: ch25-E7-A10-H6 (antibody, V domains shown)
VH: B7 VH with S31T
VL: B7 VL with S18R, F21I, N31K, S49Y, A93T
B14: 27-F11-E10-G10 (antibody, V domains shown)
VH: B7 VH with T69S, Y94F
VL: B7 VL with S18R, F21I, S49Y, A93T, I106L
B15: ch48-E11-H7-B5 (antibody, V domains shown)
VH: EVQLVESGGGLVKPGGSLKLSCAASGFTFSSYAMSWVRQTPEKRLEWVASITIGDDTYYPDSVKGRFTISRDHAKNILYLQVSSLRSEDTAMYSCARGVNSYGSSYRYFDVWGAGTTVTVSS
VL: DIVMTQSHKFMSTSVGDRVSITCKASQDVSTAVAWYQQKPGQSPKLLIYWASTRHTGVPDRFTGSGSGTDYTLTISSVQAEDLALYYCQQHYSIPFTFGAGTKLEK
B16: ch8-B3-F6-H8 (antibody, V domains shown)
VH: EVKVIESGGGLVQPGGSLKLSCAASGFDFSRYWMSWVRQAPGKGLEWIGEINPDSSAINYTPSLKDKFIISRDNAKNTLYLQMSKVRSEDTALYYCATSMTMDYWGQGTSVTVSS
VL: DIVMTQSPSSMYASLGERVTITCKASQDIKSYLSWYQQKPWKSPKTLIYYATSLADGVPSRFSGSGSGQDYSLTISSLESDDTATYYCLQHGESPYTFGGGTKLEK

What follows are binders tested against cynomolgus (Macaca fascicularis) LILRB4 (cynomolgus (Macaca fascicularis)) (assay: FACS, CHO-S-cynoLILRB4 cells).

| binding | Binder |
| --- | --- |
| no binding (tested: up to 66.67 nM) | B1 |
| no binding (tested: up to 66.67 nM) | B2 |
| no binding (tested: up to 66.67 nM) | B3 |
| no binding | B4 |
| no binding (tested: up to 66.67 nM) | B5 |
| no binding (tested: up to 66.67 nM) | B6 |
| no binding (tested: up to 66.67 nM) | B7 |
| no binding (tested: up to 66.67 nM) | B8 |
| no binding (tested: up to 66.67 nM) | B9 |
| no binding | B10 |
| no binding (tested: up to 66.67 nM) | B11 |
| no binding (tested: up to 66.67 nM) | B12 |
| no binding (tested: up to 66.67 nM) | B13 |
| no binding | B14 |
| no binding (tested: up to 66.67 nM) | B15 |
| no binding (tested: up to 66.67 nM) | B16 |
